Paper PMC6494879, “Drug resistance emergence in macaques administered cabotegravir long-acting for pre-exposure prophylaxis during acute SHIV infection” (Nature Communications, 2019)
Read-outs that look alike come from different tables or passages of the source. This continues a long series; more values of the same kind are listed elsewhere.

Conditions: for Median CAB: plasma, median of treated macaques

SMILES: C[C@H]1CO[C@@H]2Cn3cc(C(=O)NCc4ccc(F)cc4F)c(=O)c(O)c3C(=O)N12 [CAB, cabotegravir]
- Plasma CAB concentration (macaque 01D520, day 4): 0.009 µg/mL
- Plasma CAB concentration (macaque 01D520, day 11): 0.009 µg/mL
- Plasma CAB concentration (macaque 01D520, day 115): 0.125 µg/mL
- Plasma CAB concentration (macaque 01D520, day 120): 0.049 µg/mL
- Plasma CAB concentration (macaque 01D520, day 127): 0.009 µg/mL
- Plasma CAB concentration (macaque 01D520, day 134): 0.009 µg/mL
- Plasma CAB concentration (macaque 01D520, day 143): 0.009 µg/mL
- Plasma CAB concentration (macaque 01D520, day 148): 0.009 µg/mL
- Plasma CAB concentration (macaque 01D520, day 155): 0.009 µg/mL
- Plasma CAB concentration (macaque 01D520, day 162): 0.009 µg/mL
- Plasma CAB concentration (macaque 01D520, day 170): 0.009 µg/mL
- Plasma CAB concentration (macaque 01D520, day 176): 0.009 µg/mL
- Plasma CAB concentration (macaque 01D520, day 183): 0.009 µg/mL
- Plasma CAB concentration (macaque 01D520, day 190): 0.009 µg/mL
- Plasma CAB concentration (macaque 01D520, day 197): 0.009 µg/mL
- Plasma CAB concentration (macaque 01D520, day 204): 0.009 µg/mL
- Plasma CAB concentration (macaque 10D181, day 4): 0.009 µg/mL
- Plasma CAB concentration (macaque 10D181, day 11): 0.009 µg/mL
- Plasma CAB concentration (macaque 10D181, day 115): 0.092 µg/mL
- Plasma CAB concentration (macaque 10D181, day 120): 0.063 µg/mL
- Plasma CAB concentration (macaque 10D181, day 127): 0.0297 µg/mL
- Plasma CAB concentration (macaque 10D181, day 134): 0.02 µg/mL
- Plasma CAB concentration (macaque 10D181, day 143): 0.01 µg/mL
- Plasma CAB concentration (macaque 10D181, day 148): 0.009 µg/mL
- Plasma CAB concentration (macaque 10D181, day 155): 0.009 µg/mL
- Plasma CAB concentration (macaque 10D181, day 162): 0.009 µg/mL
- Plasma CAB concentration (macaque 10D181, day 170): 0.009 µg/mL
- Plasma CAB concentration (macaque 10D181, day 176): 0.009 µg/mL
- Plasma CAB concentration (macaque 10D181, day 183): 0.009 µg/mL
- Plasma CAB concentration (macaque 10D181, day 190): 0.009 µg/mL
- Plasma CAB concentration (macaque 10D181, day 197): 0.009 µg/mL
- Plasma CAB concentration (macaque 10D181, day 204): 0.009 µg/mL
- Plasma CAB concentration (macaque 33996, day 4): 0.009 µg/mL
- Plasma CAB concentration (macaque 33996, day 11): 0.009 µg/mL
- Plasma CAB concentration (macaque 33996, day 115): 0.342 µg/mL
- Plasma CAB concentration (macaque 33996, day 120): 0.269 µg/mL
- Plasma CAB concentration (macaque 33996, day 127): 0.188 µg/mL
- Plasma CAB concentration (macaque 33996, day 134): 0.116 µg/mL
- Plasma CAB concentration (macaque 33996, day 143): 0.069 µg/mL
- Plasma CAB concentration (macaque 33996, day 148): 0.055 µg/mL
- Plasma CAB concentration (macaque 33996, day 155): 0.0376 µg/mL
- Plasma CAB concentration (macaque 33996, day 162): 0.024 µg/mL
- Plasma CAB concentration (macaque 33996, day 170): 0.015 µg/mL
- Plasma CAB concentration (macaque 33996, day 176): 0.011 µg/mL
- Plasma CAB concentration (macaque 33996, day 183): 0.009 µg/mL
- Plasma CAB concentration (macaque 33996, day 190): 0.009 µg/mL
- Plasma CAB concentration (macaque 33996, day 197): 0.009 µg/mL
- Plasma CAB concentration (macaque 33996, day 204): 0.009 µg/mL
- Plasma CAB concentration (macaque 35451, day 4): 0.009 µg/mL
- Plasma CAB concentration (macaque 35451, day 11): 0.009 µg/mL
- Plasma CAB concentration (macaque 35451, day 115): 1.08 µg/mL
- Plasma CAB concentration (macaque 35451, day 120): 0.77 µg/mL
- Plasma CAB concentration (macaque 35451, day 127): 0.566 µg/mL
- Plasma CAB concentration (macaque 35451, day 134): 0.463 µg/mL
- Plasma CAB concentration (macaque 35451, day 143): 0.366 µg/mL
- Plasma CAB concentration (macaque 35451, day 148): 0.319 µg/mL
- Plasma CAB concentration (macaque 35451, day 155): 0.221 µg/mL
- Plasma CAB concentration (macaque 35451, day 162): 0.234 µg/mL
- Plasma CAB concentration (macaque 35451, day 170): 0.147 µg/mL
- Plasma CAB concentration (macaque 35451, day 176): 0.124 µg/mL
- Plasma CAB concentration (macaque 35451, day 183): 0.089 µg/mL
- Plasma CAB concentration (macaque 35451, day 190): 0.072 µg/mL
- Plasma CAB concentration (macaque 35451, day 197): 0.052 µg/mL
- Plasma CAB concentration (macaque 35451, day 204): 0.046 µg/mL
- Plasma CAB concentration (macaque CH54, day 4): 0.009 µg/mL
- Plasma CAB concentration (macaque CH54, day 11): 0.009 µg/mL
- Plasma CAB concentration (macaque CH54, day 115): 0.413 µg/mL
- Plasma CAB concentration (macaque CH54, day 120): 0.244 µg/mL
- Plasma CAB concentration (macaque CH54, day 127): 0.135 µg/mL
- Plasma CAB concentration (macaque CH54, day 134): 0.0669 µg/mL
- Plasma CAB concentration (macaque CH54, day 143): 0.027 µg/mL
- Plasma CAB concentration (macaque CH54, day 148): 0.0162 µg/mL
- Plasma CAB concentration (macaque CH54, day 155): 0.009 µg/mL
- Plasma CAB concentration (macaque CH54, day 162): 0.009 µg/mL
- Plasma CAB concentration (macaque CH54, day 170): 0.009 µg/mL
- Plasma CAB concentration (macaque CH54, day 176): 0.009 µg/mL
- Plasma CAB concentration (macaque CH54, day 183): 0.009 µg/mL
- Plasma CAB concentration (macaque CH54, day 190): 0.009 µg/mL
- Plasma CAB concentration (macaque CH54, day 197): 0.009 µg/mL
- Plasma CAB concentration (macaque CH54, day 204): 0.009 µg/mL
- Plasma CAB concentration (macaque CJ92, day 4): 0.009 µg/mL
- Plasma CAB concentration (macaque CJ92, day 11): 0.009 µg/mL
- Plasma CAB concentration (macaque CJ92, day 115): 0.992 µg/mL
- Plasma CAB concentration (macaque CJ92, day 120): 0.738 µg/mL
- Plasma CAB concentration (macaque CJ92, day 127): 0.715 µg/mL
- Plasma CAB concentration (macaque CJ92, day 134): 0.631 µg/mL
- Plasma CAB concentration (macaque CJ92, day 143): 0.446 µg/mL
- Plasma CAB concentration (macaque CJ92, day 148): 0.361 µg/mL
- Plasma CAB concentration (macaque CJ92, day 155): 0.347 µg/mL
- Plasma CAB concentration (macaque CJ92, day 162): 0.307 µg/mL
- Plasma CAB concentration (macaque CJ92, day 170): 0.232 µg/mL
- Plasma CAB concentration (macaque CJ92, day 176): 0.151 µg/mL
- Plasma CAB concentration (macaque CJ92, day 183): 0.088 µg/mL
- Plasma CAB concentration (macaque CJ92, day 190): 0.07 µg/mL
- Plasma CAB concentration (macaque CJ92, day 197): 0.0499 µg/mL
- Plasma CAB concentration (macaque CJ92, day 204): 0.0404 µg/mL
- Median CAB (day 4): 0.009 µg/mL
- Median CAB (day 11): 0.009 µg/mL
- Median CAB (day 115): 0.3775 µg/mL
- Median CAB (day 120): 0.2565 µg/mL
- Median CAB (day 127): 0.1615 µg/mL
- Median CAB (day 134): 0.09145 µg/mL
- Median CAB (day 143): 0.048 µg/mL
- Median CAB (day 148): 0.0356 µg/mL
- Median CAB (day 155): 0.0233 µg/mL
- Median CAB (day 162): 0.0165 µg/mL
- Median CAB (day 170): 0.012 µg/mL
- Median CAB (day 176): 0.01 µg/mL
- Median CAB (day 183): 0.009 µg/mL
- Median CAB (day 190): 0.009 µg/mL
- Median CAB (day 197): 0.009 µg/mL
- Median CAB (day 204): 0.009 µg/mL
